Laboratory results as given in PubChem BioAssay AID624405 (Broad Institute, 2012).
About 250 (13%) of roughly 1,900 compounds were called active. Another 4% or so got no clear call; they are omitted.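 Rule for the calls: active = fitted curve reaches 40% rescue activity at or below the top valid dose, in every test run; inconclusive = test runs disagree, some active and some inactive; inactive = every run misses the threshold or moves the wrong way.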 The entries are a selection whose mix differs from that of the whole data set. Entries with a potency or affinity are not part of this list.

assay: rescue of simvastatin-induced ATP loss – cell-based, C2C12 myotubes, ATP luminescence, cherry pick, dose response (AID 624405); conditions: 48 h, scaled: DMSO wells 0, geranylgeraniol wells 100; at 19.5 µM (top of the series) unless noted;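 note: myotubes are challenged with simvastatin at 10 µM to lower ATP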

SMILES | rescue activity (ATP increase)
O=C(OCCOc1ccc(Br)cc1)c1cnccn1 | inactive: 9.55%
C[C@@H]1CN([C@@H](C)CO)C(=O)c2cc(NC(=O)Nc3ccc(C(F)(F)F)cc3)ccc2O[C@H]1CN(C)Cc1ccc(C(=O)Nc2ccccc2N)cc1 | inactive: 10.1%
CNC(=O)c1ccccc1S(=O)(=O)c1ccccc1C#N | inactive: 3.83%
C[C@H]1CN([C@@H](C)CO)C(=O)c2cccc(NS(=O)(=O)c3ccccc3)c2O[C@H]1CN(C)Cc1ccc(Oc2ccccc2)cc1 | inactive: 0.64%
C[C@@H]1CCCCO[C@@H](CN(C)CC2CCCCC2)[C@@H](C)CN([C@H](C)CO)C(=O)c2cc(NS(=O)(=O)c3ccc(F)cc3)ccc2O1 | inactive: 9.84%
Cc1ccc(-c2ccccc2[C@@H]2C[C@H]3CN(C)C(=O)[C@]34CCCN24)o1 | inactive: 35.7%
Cc1ccc(S(=O)(=O)Nc2ccc3c(c2)CC(=O)N([C@@H](C)CO)C[C@H](C)[C@H](CN(C)S(=O)(=O)c2cccs2)O3)cc1 | inactive: 5.6%
O=C(CSCc1ccc(Cl)cc1)N/N=C/c1ccccc1 | inactive: -13.5%
C[C@H]1CCCCO[C@@H](CN(C)C(=O)NC2CCCCC2)[C@@H](C)CN([C@@H](C)CO)C(=O)c2cc(NC(=O)Nc3cccc4ccccc34)ccc2O1 | inactive: 6.67%
NC(=O)NC(=O)CSc1nc(-c2ccccc2)c(-c2ccccc2)n1CC1CCCO1 (centres undefined) | inactive: 15.9%
Cc1nnc(Sc2nc3c(c(=O)n(C)c(=O)n3C)n2Cc2ccccc2Cl)s1 | inactive: -13.5%
OC[C@@H]1[C@@H]2c3ccccc3NC[C@@H]2N1Cc1ccccc1Cl | inactive: -5.82%
COc1ccc(S(=O)(=O)Nc2ccc3c(c2)CC(=O)N([C@H](C)CO)C[C@@H](C)[C@H](CN(C)Cc2ccc(C(F)(F)F)cc2)O3)cc1 | inactive: 21.9%
C[C@@H]1CN([C@@H](C)CO)C(=O)c2cc(NS(=O)(=O)c3ccc(F)cc3)ccc2O[C@H]1CN(C)S(=O)(=O)c1cccs1 | inactive: 1.89% [at 21 µM]
CN(c1ccc(C(=O)NCc2ccco2)cc1)S(C)(=O)=O | inactive: 3.46%
O=S(=O)(c1ccccc1C(F)(F)F)N1CCN(S(=O)(=O)c2ccccc2C(F)(F)F)CC1 | inactive: 16%
Cc1c(Cl)cccc1NC(=O)CNC(=O)Cc1n[nH]c(=O)c2ccccc12 | inactive: 14.5%
C[C@@H]1CCCCO[C@H](CN(C)C(=O)NC2CCCCC2)[C@H](C)CN([C@@H](C)CO)C(=O)c2cc(NC(=O)Nc3cccc4ccccc34)ccc2O1 | inactive: 2.49%
C[C@@H]1CCCCO[C@@H](CN(C)C(=O)C2CCCCC2)[C@H](C)CN([C@H](C)CO)C(=O)c2cc(NS(=O)(=O)c3ccccc3)ccc2O1 | inactive: 8.26%
Nc1nc(-c2ccco2)nn1C(=O)CCc1ccccc1 | inactive: -0.124%
Cc1ccc(CSCC(=O)N2CCOCC2)cc1 | inactive: 6.53%
C[C@H](CO)N1C[C@H](C)[C@H](CN(C)S(=O)(=O)c2cn(C)cn2)Oc2c(NS(C)(=O)=O)cccc2C1=O | inactive: 4.58%
COc1ccc(NC(=O)N(C)C[C@H]2Oc3c(NS(=O)(=O)c4cccs4)cccc3C(=O)N([C@@H](C)CO)C[C@H]2C)cc1 | inactive: 5.39%

2 successive entries already listed, for reference:
SMILES | rescue activity (ATP increase)
C[C@H]1CCCCO[C@@H](CN(C)C(=O)NC2CCCCC2)[C@@H](C)CN([C@@H](C)CO)C(=O)c2cc(NC(=O)Nc3cccc4ccccc34)ccc2O1 | inactive: 6.67%
NC(=O)NC(=O)CSc1nc(-c2ccccc2)c(-c2ccccc2)n1CC1CCCO1 (centres undefined) | inactive: 15.9%

More entries:

SMILES | rescue activity (ATP increase)
COc1cc(Cl)ccc1NC(=O)COc1ccccc1C(=O)N1CCN(c2ccc(O)cc2)CC1 | inactive: 8.49%
C[C@@H]1CCCCO[C@@H](CN(C)S(=O)(=O)c2cccs2)[C@H](C)CN([C@H](C)CO)C(=O)c2cc(NC(=O)Nc3ccc(F)cc3)ccc2O1 | inactive: -18.3%
C[C@H]1CN([C@@H](C)CO)C(=O)c2cccc(NC(=O)c3ccc(-c4nccs4)cc3)c2O[C@@H]1CN(C)CC1CCCCC1 | inactive: 12.4%
C[C@H]1CN([C@@H](C)CO)C(=O)c2cccc(NC(=O)C3CCCCC3)c2O[C@H]1CN(C)S(=O)(=O)c1ccc(Cl)cc1 | inactive: 25.8%
C[C@H](CO)N1C[C@H](C)[C@H](CN(C)Cc2ccc(Cl)c(Cl)c2)Oc2ccc(NS(=O)(=O)c3cn(C)cn3)cc2CC1=O | inactive: 21.2% [at 21 µM]
CCOC(=O)Nc1ccc(C)cc1Br | inactive: 36.3%
O=c1oc2cc(OCc3ccc(F)cc3F)ccc2cc1-c1ccccn1 | inactive: 9.74%
COC(=O)c1c(C)oc2ccc(NS(=O)(=O)c3cc(OC)ccc3OC)cc12 | inactive: -0.6%
C[C@@H]1CN([C@H](C)CO)C(=O)Cc2cc(NC(=O)CCCCCC(=O)Nc3ccccc3N)ccc2O[C@@H]1CN(C)Cc1ccc(C(F)(F)F)cc1 | inactive: 11% [at 16 µM]
C[C@H](CO)N1C[C@H](C)[C@H](CN(C)C(=O)Nc2cc(F)ccc2F)Oc2cc(C#CC3CC3)ccc2S1(=O)=O | inactive: 31.3%
c1ccc(Cn2nnnc2CN2CCN(c3ncccn3)CC2)cc1 | inactive: -7.32%
O=C(NC1CCCCC1)C1CCN(C(=O)NCc2ccccc2)CC1 | inactive: 6.47%
COc1ccc(NC(=O)Nc2ccc3c(c2)C(=O)N([C@H](C)CO)C[C@@H](C)[C@H](CN(C)Cc2ccc(C(F)(F)F)cc2)OCCCC[C@H](C)O3)cc1 | inactive: -39.1%
CSc1nc2nc3c(c(=O)n2[nH]1)CCCC3 | inactive: -29.8% [at 10 µM]
CCC(CC)c1nnc(NS(=O)(=O)Cc2ccccc2)s1 | inactive: 10.8%
Cc1ccc(-c2[nH][nH]c(=O)c(=O)c2N=Nc2ccccc2)cc1 | inactive: 18.7%
CCCS(=O)(=O)N1CCCC(C(=O)N2CCN(c3ccccc3)CC2)C1 (centres undefined) | inactive: -9.27%
CCCC(CCC(=O)Nc1ccc(C(=O)OCC)cc1)C(=O)O (centres undefined) | inactive: 12%
COc1ccc(-c2ccc3n(c2=O)C[C@H]2[C@H](CO)[C@@H](C(=O)N(C)C)N(CC4CCCC4)[C@@H]32)cc1 | inactive: -3.83%
C[C@@H]1CN([C@@H](C)CO)C(=O)c2cccc(NS(C)(=O)=O)c2O[C@H]1CN(C)CC1CCCCC1 | inactive: 22.8%
Cc1ccc(S(=O)(=O)NCCN=C(CN2CCCC2)NS(=O)(=O)c2ccc(C)cc2)cc1 | inactive: 10.6%
O=C(c1ccccc1)c1ccc(Cn2cc(CCCO)nn2)cc1 | inactive: 35.9%
CCOC(=O)CN1CC23C=CC(O2)C(C(=O)NC2CCCCC2)C3C1=O (centres undefined) | inactive: -14.9%

SMILES | rescue activity (ATP increase)
Cn1c(N)c(C(=O)COC(=O)C2(c3cccc(F)c3)CCCC2)c(=O)n(C)c1=O | inactive: 3.85%
O=C(CC(c1ccccc1)c1ccco1)N1CCOCC1 (centres undefined) | inactive: -5.94%
O=c1c2ccccc2ncn1Cc1nc2ccccc2s1 | inactive: -11.5%
C[C@@H]1CCCCO[C@@H](CN(C)S(=O)(=O)c2ccc(F)cc2)[C@H](C)CN([C@@H](C)CO)C(=O)c2cc(NC(=O)Nc3cccc4ccccc34)ccc2O1 | inactive: 33.3%
COc1ccc(S(=O)(=O)Nc2ccc3c(c2)CC(=O)N([C@H](C)CO)C[C@H](C)[C@@H](CN(C)Cc2ccc(Oc4ccccc4)cc2)O3)cc1 | inactive: 8.31%
CCSc1nc2sc3c(c2c(=O)n1-c1ccc(OC)cc1)CCN(C)C3 | inactive: 40.1%
CCOc1ccc(NC(=O)CN(c2ccc(OC)cc2)S(C)(=O)=O)cc1 | inactive: 7.25%
Cn1c2c(c(=O)n(C)c1=O)CN(Cc1ccc3c(c1)OCO3)CN2 | inactive: 38.8%
C[C@@H]1CN([C@@H](C)CO)C(=O)c2cc(NS(C)(=O)=O)ccc2O[C@@H](C)CCCCO[C@H]1CN(C)S(=O)(=O)c1ccc(Cl)cc1 | inactive: -2.63%
O=S(=O)(NCc1csc(-c2cccs2)n1)c1cccc(C(F)(F)F)c1 | inactive: 12.9%
CCOc1ncnc2c1[nH]c1ccccc12 | inactive: 13.5%
C[C@@H]1CCCCO[C@H](CN(C)S(=O)(=O)c2ccc(Cl)cc2)[C@H](C)CN([C@@H](C)CO)C(=O)c2cc(NS(C)(=O)=O)ccc2O1 | inactive: 20.4%
C[C@@H]1CN([C@H](C)CO)C(=O)c2cccc(NC(=O)c3ccc(-c4nccs4)cc3)c2O[C@@H]1CN(C)C(=O)Nc1ccc(F)cc1 | inactive: 7.97%
C[C@H]1CCCCO[C@H](CN(C)CC2CCCCC2)[C@@H](C)CN([C@@H](C)CO)C(=O)c2cc(NC(=O)Nc3ccc4c(c3)OCO4)ccc2O1 | inactive: -25.4%
CCC(C)[C@H]1COCCS(=O)(=O)N1Cc1ccc(Br)cc1 (some centres undefined) | inactive: 3.79%
Nn1c(SCC(=O)N2CCN(S(=O)(=O)c3ccccc3)CC2)nnc1-c1cccs1 | inactive: -6.28%
O=C1CC(c2cccs2)c2cc3c(cc2N1)OCO3 (centres undefined) | inactive: 19.6%
C[C@H]1CN([C@@H](C)CO)C(=O)Cc2cc(NC(=O)Nc3ccc4c(c3)OCO4)ccc2O[C@@H]1CN(C)Cc1ccc(Cl)c(Cl)c1 | inactive: 17.4%
O=C(C[C@@H]1CC[C@@H]2[C@H](COC[C@H](O)CN2C(=O)c2cc(Cl)cc(Cl)c2)O1)N1CCc2ccccc2C1 | inactive: 6.86% [at 10 µM]
C[C@@H]1CCCCO[C@@H](CN(C)S(=O)(=O)c2cccs2)[C@H](C)CN([C@@H](C)CO)C(=O)c2cc(NC(=O)Nc3ccc(F)cc3)ccc2O1 | inactive: 4.48%
CN1C[C@@H]2[C@H](c3ccccc31)[C@@H](CO)N2Cc1ccccc1Cl | inactive: -13%
COc1ccc(NC(=O)N(C)C[C@H]2Oc3c(NC(=O)Nc4cccc5ccccc45)cccc3C(=O)N([C@H](C)CO)C[C@@H]2C)cc1 | inactive: -0.819%
COc1ccc(-n2nc3cc(C)c(N)c(Br)c3n2)cc1 | inactive: 2.51%
